These are yes or no findings as the source states them, for the method shown. In cells and extracts the contact can be indirect. Some results given as binding are weak or reduced against the parent protein; the word gives no strength.
Target: T1, VPS18, endogenous in HeLa cells (human (endogenous in HeLa)) (UniProt Q9P253)
T1 sequence: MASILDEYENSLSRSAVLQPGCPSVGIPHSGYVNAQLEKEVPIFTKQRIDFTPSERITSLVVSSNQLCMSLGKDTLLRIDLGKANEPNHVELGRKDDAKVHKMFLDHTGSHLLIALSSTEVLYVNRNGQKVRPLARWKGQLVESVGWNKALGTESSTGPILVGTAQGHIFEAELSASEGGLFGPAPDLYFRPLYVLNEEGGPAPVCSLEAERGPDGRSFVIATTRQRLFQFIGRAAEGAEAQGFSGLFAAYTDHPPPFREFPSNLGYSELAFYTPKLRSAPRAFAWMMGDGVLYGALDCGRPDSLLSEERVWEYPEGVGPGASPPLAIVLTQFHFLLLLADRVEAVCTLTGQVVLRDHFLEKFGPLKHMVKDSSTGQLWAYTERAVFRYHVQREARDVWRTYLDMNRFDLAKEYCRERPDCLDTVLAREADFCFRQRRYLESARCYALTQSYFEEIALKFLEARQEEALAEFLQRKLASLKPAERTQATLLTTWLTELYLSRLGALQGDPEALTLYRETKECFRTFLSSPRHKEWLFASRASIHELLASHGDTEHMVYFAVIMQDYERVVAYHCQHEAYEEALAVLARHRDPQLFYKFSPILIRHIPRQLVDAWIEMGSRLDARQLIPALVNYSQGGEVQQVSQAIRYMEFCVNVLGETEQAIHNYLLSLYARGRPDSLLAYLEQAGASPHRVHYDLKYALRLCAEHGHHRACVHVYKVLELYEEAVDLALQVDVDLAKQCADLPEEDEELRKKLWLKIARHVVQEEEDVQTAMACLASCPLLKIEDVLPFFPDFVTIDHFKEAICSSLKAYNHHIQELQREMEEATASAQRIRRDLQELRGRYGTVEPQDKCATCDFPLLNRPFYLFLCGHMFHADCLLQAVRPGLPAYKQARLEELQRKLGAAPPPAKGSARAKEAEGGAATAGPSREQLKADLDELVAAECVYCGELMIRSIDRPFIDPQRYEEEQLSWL
Experiment: co-IP; endogenous proteins of HeLa lysate (NP-40 lysis buffer); IP with anti-ZNRF2, anti-VPS18 or control IgG on magnetic protein G-Sepharose, blots with anti-ZNRF2 or anti-VPS18

binding: binds
B1: ZNRF2, endogenous in HeLa cells (enzyme, UniProt Q8NHG8 1-242)
chain: MGAKQSGPAAANGRTRAYSGSDLPSSSSGGANGTAGGGGGARAAAAGRFPAQVPSAHQPSASGGAAAAAAAPAAPAAPRSRSLGGAVGSVASGARAAQSPFSIPNSSSGPYGSQDSVHSSPEDGGGGRDRPVGGSPGGPRLVIGSLPAHLSPHMFGGFKCPVCSKFVSSDEMDLHLVMCLTKPRITYNEDVLSKDAGECAICLEELQQGDTIARLPCLCIYHKGCIDEWFEVNRSCPEHPSD

Source: paper PMC10869362
